From the supplement of paper PMC4604168 (melanoma cell lines)
The list shows a part of the results. Many values rest on one well or one pass, so single values are uncertain.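 Imaging used 1,536-well plates; nuclei positive for cleaved PARP by antibody were divided by total DNA-stained nuclei to yield the apoptosis fraction. Doses for screening kept most cells viable, and cell lines differ markedly in resting and induced cleaved-PARP levels.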

Assays:
Assay in all cases: cleaved PARP positive nuclei fraction relative to DMSO control; melanoma cells; higher = more apoptosis
Details in all cases: library dose: low library concentration; 72 h
[1] = test system: MZ2-MEL
[2] = test system: MeWo
[3] = test system: RPMI7951
[4] = test system: RVH-421
[5] = test system: SkMel28
[6] = test system: SkMel2
[7] = test system: SkMel30
[8] = test system: UACC62
[9] = test system: WM115
[10] = test system: WM1716
[11] = test system: WM1745
[12] = test system: WM3526
[13] = test system: WM3619
[14] = test system: WM451Lu

Structure (SMILES) | cleaved PARP positive nuclei fraction [1] [%] | cleaved PARP positive nuclei fraction [2] [%] | cleaved PARP positive nuclei fraction [3] [%] | cleaved PARP positive nuclei fraction [4] [%] | cleaved PARP positive nuclei fraction [5] [%] | cleaved PARP positive nuclei fraction [6] [%] | cleaved PARP positive nuclei fraction [7] [%] | cleaved PARP positive nuclei fraction [8] [%] | cleaved PARP positive nuclei fraction [9] [%] | cleaved PARP positive nuclei fraction [10] [%] | cleaved PARP positive nuclei fraction [11] [%] | cleaved PARP positive nuclei fraction [12] [%] | cleaved PARP positive nuclei fraction [13] [%] | cleaved PARP positive nuclei fraction [14] [%]
Nc1ncn([C@H]2C[C@H](O)[C@@H](CO)O2)c(=O)n1 [decitabine] + C#Cc1cccc(Nc2ncnc3cc(OCCOC)c(OCCOC)cc23)c1 [erlotinib] (first compound 0.1 µM, partner dose 0.8 µM) | 44.8 | 90.2 | 98.1 | 110 | 48.8 | 79.5 | 40.5 | 297 | 161 | 56.3 | 105 | 42.6 | 111 | 43.1
CS(=O)(=O)CCNCc1ccc(-c2ccc3ncnc(Nc4ccc(OCc5cccc(F)c5)c(Cl)c4)c3c2)o1 [lapatinib] + C=CCNC1=C2C[C@@H](C)C[C@H](OC)[C@H](O)[C@@H](C)/C=C(\C)[C@H](OC(N)=O)[C@@H](OC)/C=C\C=C(/C)C(=O)NC(=CC1=O)C2=O [Tanespimycin] (first compound 0.8 µM, partner dose 0.002 µM) | 103 | 66.9 | 59.9 | 84.7 | 96.8 | 80.3 | 112 | 98.7 | 72.2 | 309 | 683 | 67.6 | 68.7 | 31.7
CNC(=O)c1cc(Oc2ccc(NC(=O)Nc3ccc(Cl)c(C(F)(F)F)c3)cc2)ccn1 [sorafenib] + OCc1c[nH]c2ccccc12 [Indole-3-carbinol] (first compound 0.4 µM, partner dose 0.8 µM) | 116 | 27.9 | 77.5 | 138 | 80.6 | 124 | 17.6 | 57.6 | 133 | 57.8 | 95.4 | 99 | 105 | 23.4
Cc1cc(Nc2cc(N3CCN(C)CC3)nc(/C=C/c3ccccc3)n2)n[nH]1 + C#Cc1cccc(Nc2ncnc3cc(OCCOC)c(OCCOC)cc23)c1 [erlotinib] (first compound 0.04 µM, partner dose 0.8 µM) | 116 | 58 | 114 | 120 | 182 | 119 | 89.4 | 329 | 146 | 83 | 117 | 60.7 | 106 | 262
C=C(c1ccc(C(=O)O)cc1)c1cc2c(cc1C)C(C)(C)CCC2(C)C [Bexarotene] + CCCS(=O)(=O)Nc1ccc(F)c(C(=O)c2c[nH]c3ncc(Cl)cc23)c1F [PLX4720] (first compound 2 µM, partner dose 0.08 µM) | 146 | 193 | 138 | 119 | 131 | 233 | 56.6 | 340 | 53.1 | 106 | 97.9 | 105 | 113 | 81.2
Nc1ccn([C@@H]2O[C@H](CO)[C@@H](O)C2(F)F)c(=O)n1 [gemcitabine] + Nc1ncn([C@H]2C[C@H](O)[C@@H](CO)O2)c(=O)n1 [decitabine] (first compound 0.0004 µM, partner dose 0.1 µM) | 61.3 | 126 | 72.2 | 83.3 | 121 | 117 | 115 | 183 | 69.3 | 37 | 118 | 182 | 147 | 94.4
Cn1c(=O)n(-c2ccc(C(C)(C)C#N)cc2)c2c3cc(-c4cnc5ccccc5c4)ccc3ncc21 + Clc1ccc(Nc2nnc(Cc3ccncc3)c3ccccc23)cc1 [vatalanib] (first compound 0.004 µM, partner dose 2 µM) | 111 | 158 | 42.9 | 208 | 87.2 | 83.5 | 142 | 65.4 | 55.8 | 107 | 128 | 83.7 | 125 | 293
Nc1ncn([C@H]2C[C@H](O)[C@@H](CO)O2)c(=O)n1 [decitabine] + OCc1c[nH]c2ccccc12 [Indole-3-carbinol] (first compound 0.1 µM, partner dose 0.8 µM) | 47.9 | 425 | 76.2 | 198 | 47.1 | 105 | 94.9 | 329 | 152 | 465 | 91.9 | 60.9 | 109 | 132
O=C(O)[C@@H]1[O][Sb](=[O])([O][Sb]2(=[O])[O][C@H]([C@H](O)CO)[C@H](O)[C@H](C(=O)O)[O]2)[O][C@H]([C@H](O)CO)[C@@H]1O (some centres not stated) [stibogluconate] + O=C(O)c1ccc2c(c1)nc(Nc1cccc(Cl)c1)c1ccncc12 [CX4945] (first compound 2 µM, partner dose 0.4 µM) | 113 | 74.3 | 69.4 | 47.3 | 138 | 118 | 98.8 | 48.4 | 135 | 36.4 | 118 | 553 | 109 | 91.1
O=C(O)c1ccc2c(c1)nc(Nc1cccc(Cl)c1)c1ccncc12 + Cn1c(Nc2ccc(C(F)(F)F)cc2)nc2cc(Oc3ccnc(-c4ncc(C(F)(F)F)[nH]4)c3)ccc21 [CHIR265] (first compound 0.4 µM, partner dose 0.08 µM) | 116 | 432 | 73.5 | 393 | 106 | 242 | 968 | 101 | 1120 | 647 | 152 | 149 | 131 | 218
C[C@@H](Oc1cc(-c2cnn(C3CCNCC3)c2)cnc1N)c1c(Cl)ccc(F)c1Cl [Crizotinib] + OCc1c[nH]c2ccccc12 [Indole-3-carbinol] (first compound 0.2 µM, partner dose 0.8 µM) | 182 | 91.4 | 94.6 | 79.6 | 178 | 39.5 | 64.6 | 82.7 | 49.2 | 121 | 98.2 | 71.3 | 78.7 | 158
Nc1ccn([C@@H]2O[C@H](CO)[C@@H](O)C2(F)F)c(=O)n1 [gemcitabine] + Nc1cccc2c1CN(C1CCC(=O)NC1=O)C2=O [lenalidomide] (first compound 0.0004 µM, partner dose 1 µM) | 44.2 | 49.7 | 41.5 | 57.3 | 80.4 | 40 | 99.8 | 152 | 70.5 | 419 | 134 | 96.6 | 140 | 75.2
CC(C)C[C@H](NC(=O)[C@H](Cc1ccccc1)NC(=O)c1cnccn1)B(O)O [Bortezomib] + Nc1nc(F)nc2c1ncn2[C@@H]1O[C@H](CO)[C@@H](O)[C@@H]1O [fludarabine] (first compound 0.001 µM, partner dose 0.2 µM) | 118 | 670 | 100 | 242 | 46.4 | 792 | 4850 | 55.4 | 126 | 532 | 104 | 875 | 394 | 395
